The supplement of paper PMC10849652
The other results are listed elsewhere or left out.

By UniProt entry, the sequences of proteins in these tests, tags left out. Where a name states a change or a piece, a line headed by the entry shows the natural chain unless it says otherwise.
UniProt Q6PFW1: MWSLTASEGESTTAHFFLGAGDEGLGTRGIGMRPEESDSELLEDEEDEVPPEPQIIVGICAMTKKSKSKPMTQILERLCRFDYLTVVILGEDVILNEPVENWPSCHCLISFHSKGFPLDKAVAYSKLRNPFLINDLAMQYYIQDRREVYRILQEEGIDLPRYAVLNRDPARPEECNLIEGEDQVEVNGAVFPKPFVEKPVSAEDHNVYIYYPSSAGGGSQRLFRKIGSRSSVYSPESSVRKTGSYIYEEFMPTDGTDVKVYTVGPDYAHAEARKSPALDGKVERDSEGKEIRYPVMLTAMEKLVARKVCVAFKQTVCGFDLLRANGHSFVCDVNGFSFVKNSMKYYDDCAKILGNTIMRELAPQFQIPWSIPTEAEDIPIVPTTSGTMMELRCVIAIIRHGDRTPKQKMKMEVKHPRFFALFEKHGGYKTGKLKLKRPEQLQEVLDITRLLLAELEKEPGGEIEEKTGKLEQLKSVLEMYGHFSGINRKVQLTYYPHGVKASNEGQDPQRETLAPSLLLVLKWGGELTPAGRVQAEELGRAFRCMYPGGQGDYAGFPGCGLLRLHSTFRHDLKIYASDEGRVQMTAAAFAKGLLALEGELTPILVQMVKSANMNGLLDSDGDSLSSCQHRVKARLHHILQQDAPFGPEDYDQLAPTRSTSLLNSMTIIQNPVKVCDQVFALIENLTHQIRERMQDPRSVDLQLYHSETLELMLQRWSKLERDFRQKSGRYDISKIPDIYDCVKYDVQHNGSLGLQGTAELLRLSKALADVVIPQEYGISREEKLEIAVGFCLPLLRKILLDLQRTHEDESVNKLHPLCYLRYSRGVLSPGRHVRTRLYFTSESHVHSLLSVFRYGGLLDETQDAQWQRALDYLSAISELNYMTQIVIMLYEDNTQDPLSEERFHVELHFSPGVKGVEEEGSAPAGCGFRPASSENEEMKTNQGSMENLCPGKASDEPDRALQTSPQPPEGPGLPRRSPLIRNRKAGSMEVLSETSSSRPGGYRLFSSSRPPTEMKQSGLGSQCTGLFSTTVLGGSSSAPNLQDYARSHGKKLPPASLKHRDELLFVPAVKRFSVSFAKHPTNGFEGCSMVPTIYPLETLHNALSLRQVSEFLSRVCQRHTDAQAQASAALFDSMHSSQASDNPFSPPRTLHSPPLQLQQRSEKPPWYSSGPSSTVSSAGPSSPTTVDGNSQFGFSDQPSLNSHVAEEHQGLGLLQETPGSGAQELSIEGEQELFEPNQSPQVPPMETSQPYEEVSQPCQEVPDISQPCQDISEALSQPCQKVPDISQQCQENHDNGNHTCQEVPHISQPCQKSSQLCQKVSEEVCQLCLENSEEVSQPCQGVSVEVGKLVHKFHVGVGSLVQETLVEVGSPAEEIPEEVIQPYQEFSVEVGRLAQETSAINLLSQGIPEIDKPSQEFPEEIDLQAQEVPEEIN
UniProt Q15181: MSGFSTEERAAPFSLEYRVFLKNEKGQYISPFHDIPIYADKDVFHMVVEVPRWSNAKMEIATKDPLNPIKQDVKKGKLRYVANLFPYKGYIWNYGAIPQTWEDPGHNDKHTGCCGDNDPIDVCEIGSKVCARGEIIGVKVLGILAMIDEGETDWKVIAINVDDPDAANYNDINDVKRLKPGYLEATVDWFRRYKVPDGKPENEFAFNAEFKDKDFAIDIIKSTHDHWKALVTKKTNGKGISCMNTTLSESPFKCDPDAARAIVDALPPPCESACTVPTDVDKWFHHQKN
UniProt O60664: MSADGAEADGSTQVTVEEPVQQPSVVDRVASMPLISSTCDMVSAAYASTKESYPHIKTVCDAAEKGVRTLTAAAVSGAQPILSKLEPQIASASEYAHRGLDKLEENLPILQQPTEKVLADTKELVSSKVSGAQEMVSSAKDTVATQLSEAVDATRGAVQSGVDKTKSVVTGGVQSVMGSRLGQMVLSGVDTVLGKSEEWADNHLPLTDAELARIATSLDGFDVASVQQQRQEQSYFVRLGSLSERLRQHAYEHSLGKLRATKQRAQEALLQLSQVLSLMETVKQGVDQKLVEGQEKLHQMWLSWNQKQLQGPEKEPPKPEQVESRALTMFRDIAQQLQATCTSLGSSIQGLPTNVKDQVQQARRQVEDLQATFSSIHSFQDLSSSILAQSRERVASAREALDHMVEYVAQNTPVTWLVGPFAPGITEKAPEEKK
UniProt Q9H2U2: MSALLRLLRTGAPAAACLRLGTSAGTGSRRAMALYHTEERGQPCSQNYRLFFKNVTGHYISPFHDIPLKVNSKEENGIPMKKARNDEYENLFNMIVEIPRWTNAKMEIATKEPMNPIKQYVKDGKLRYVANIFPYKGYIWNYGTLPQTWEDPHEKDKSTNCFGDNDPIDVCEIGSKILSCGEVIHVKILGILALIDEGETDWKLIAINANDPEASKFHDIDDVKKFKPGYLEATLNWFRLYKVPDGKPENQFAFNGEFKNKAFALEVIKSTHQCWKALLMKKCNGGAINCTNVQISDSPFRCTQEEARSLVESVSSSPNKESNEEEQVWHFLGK
UniProt Q9NZ53: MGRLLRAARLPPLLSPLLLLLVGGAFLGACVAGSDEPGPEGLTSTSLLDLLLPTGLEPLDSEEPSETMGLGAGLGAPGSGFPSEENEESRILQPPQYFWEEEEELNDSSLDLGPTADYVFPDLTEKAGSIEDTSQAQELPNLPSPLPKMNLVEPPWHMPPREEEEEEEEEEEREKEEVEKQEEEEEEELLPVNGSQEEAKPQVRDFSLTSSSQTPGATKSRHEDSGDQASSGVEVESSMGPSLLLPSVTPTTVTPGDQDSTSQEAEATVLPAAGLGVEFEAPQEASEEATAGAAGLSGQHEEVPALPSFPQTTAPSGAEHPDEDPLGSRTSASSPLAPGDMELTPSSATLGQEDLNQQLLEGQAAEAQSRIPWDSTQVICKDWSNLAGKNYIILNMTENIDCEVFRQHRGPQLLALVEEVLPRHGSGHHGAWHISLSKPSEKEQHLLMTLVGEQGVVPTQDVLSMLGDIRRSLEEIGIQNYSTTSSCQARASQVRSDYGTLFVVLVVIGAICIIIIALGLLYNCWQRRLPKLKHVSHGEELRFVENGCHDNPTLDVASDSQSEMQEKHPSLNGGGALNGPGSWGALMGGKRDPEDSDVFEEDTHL
UniProt Q15165: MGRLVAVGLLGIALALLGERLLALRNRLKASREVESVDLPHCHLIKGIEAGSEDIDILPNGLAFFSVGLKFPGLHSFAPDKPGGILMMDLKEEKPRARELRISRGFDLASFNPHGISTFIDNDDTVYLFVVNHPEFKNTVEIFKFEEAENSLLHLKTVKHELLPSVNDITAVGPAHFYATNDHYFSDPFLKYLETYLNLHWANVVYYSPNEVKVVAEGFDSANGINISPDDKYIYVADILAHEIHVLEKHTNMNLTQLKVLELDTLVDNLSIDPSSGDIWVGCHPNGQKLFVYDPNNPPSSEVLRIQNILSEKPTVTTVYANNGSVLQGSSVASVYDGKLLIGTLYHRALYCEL
UniProt O43660: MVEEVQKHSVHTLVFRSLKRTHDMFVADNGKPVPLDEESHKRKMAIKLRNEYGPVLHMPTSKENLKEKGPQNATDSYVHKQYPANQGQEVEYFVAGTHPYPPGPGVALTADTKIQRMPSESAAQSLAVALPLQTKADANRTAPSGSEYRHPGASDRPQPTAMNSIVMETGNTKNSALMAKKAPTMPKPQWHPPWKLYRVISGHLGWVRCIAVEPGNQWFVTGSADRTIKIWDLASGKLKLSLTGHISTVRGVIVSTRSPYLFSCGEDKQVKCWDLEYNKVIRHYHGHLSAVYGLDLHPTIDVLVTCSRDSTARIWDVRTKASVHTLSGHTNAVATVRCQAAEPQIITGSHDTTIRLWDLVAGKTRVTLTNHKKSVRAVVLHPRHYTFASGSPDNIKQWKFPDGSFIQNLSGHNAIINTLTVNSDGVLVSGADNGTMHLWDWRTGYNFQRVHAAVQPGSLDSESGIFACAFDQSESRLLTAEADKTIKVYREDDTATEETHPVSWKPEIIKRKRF
UniProt O94903: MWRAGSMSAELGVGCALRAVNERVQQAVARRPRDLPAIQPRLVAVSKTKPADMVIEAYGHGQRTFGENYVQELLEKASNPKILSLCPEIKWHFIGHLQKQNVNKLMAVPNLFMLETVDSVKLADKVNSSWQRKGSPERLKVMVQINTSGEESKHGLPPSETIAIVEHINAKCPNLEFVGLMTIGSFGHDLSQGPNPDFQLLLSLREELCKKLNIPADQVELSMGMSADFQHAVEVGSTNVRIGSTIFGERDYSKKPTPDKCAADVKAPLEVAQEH
UniProt P35813: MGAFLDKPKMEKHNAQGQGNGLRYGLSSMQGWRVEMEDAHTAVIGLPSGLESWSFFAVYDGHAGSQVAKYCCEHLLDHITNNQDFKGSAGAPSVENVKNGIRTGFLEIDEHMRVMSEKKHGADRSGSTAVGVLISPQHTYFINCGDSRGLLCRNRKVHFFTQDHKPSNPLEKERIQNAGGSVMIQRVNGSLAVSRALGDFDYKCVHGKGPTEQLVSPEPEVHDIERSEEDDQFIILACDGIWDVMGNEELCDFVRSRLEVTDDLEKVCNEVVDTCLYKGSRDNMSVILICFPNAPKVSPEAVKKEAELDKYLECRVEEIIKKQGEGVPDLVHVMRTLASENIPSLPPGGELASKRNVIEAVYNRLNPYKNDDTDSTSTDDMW
UniProt Q9HAB8: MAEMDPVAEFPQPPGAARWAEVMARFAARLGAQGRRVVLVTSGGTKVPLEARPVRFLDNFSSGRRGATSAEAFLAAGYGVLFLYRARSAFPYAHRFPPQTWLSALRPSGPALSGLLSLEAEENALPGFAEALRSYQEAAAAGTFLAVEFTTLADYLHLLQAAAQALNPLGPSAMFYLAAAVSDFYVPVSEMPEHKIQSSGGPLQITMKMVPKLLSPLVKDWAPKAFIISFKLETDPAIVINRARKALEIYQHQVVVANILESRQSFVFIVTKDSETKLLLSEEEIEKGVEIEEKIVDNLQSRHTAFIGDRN
UniProt Q9Y2G5: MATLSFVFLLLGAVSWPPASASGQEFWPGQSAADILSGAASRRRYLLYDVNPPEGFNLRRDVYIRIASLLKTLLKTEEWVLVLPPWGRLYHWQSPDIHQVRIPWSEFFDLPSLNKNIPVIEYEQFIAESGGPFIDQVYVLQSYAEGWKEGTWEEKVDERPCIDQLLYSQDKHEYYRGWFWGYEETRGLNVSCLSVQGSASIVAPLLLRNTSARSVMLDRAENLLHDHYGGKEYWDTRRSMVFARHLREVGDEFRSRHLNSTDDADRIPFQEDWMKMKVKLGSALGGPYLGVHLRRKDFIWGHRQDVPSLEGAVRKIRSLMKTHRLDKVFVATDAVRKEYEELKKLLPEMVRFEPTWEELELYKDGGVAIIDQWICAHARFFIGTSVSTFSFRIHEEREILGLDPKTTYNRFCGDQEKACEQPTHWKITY
UniProt P49005: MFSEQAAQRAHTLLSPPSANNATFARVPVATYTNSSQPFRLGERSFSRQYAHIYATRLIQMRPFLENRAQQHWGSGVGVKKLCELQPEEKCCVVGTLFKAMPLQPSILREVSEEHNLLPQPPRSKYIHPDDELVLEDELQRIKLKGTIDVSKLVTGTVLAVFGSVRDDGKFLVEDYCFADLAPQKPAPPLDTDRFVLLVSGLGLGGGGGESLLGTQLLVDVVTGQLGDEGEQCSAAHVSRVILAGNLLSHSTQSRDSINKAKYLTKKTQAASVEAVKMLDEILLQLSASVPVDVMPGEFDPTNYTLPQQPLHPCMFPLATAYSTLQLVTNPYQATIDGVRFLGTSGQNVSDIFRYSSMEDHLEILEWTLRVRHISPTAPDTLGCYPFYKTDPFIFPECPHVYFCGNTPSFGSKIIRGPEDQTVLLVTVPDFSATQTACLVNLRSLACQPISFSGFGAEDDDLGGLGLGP
UniProt Q8N490: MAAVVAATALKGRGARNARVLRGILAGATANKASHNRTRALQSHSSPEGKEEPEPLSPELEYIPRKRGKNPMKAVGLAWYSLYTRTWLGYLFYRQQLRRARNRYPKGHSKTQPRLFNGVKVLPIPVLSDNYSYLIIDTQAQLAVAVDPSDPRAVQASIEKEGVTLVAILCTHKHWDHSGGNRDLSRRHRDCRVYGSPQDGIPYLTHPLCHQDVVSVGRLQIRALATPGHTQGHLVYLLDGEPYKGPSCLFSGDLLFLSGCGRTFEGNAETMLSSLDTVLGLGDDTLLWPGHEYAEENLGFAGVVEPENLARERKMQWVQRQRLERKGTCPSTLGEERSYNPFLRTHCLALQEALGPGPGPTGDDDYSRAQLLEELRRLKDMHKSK
UniProt P23284: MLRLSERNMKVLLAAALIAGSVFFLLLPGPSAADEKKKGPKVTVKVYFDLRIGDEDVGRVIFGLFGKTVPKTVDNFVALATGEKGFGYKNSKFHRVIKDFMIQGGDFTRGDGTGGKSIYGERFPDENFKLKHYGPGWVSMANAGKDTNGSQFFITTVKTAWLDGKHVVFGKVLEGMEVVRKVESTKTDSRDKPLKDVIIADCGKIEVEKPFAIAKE

Key:
Experiment in all cases: log2 fold change, soluble protein after heating vs DMSO (PISA); higher = thermal stabilisation; K562 cells, 10 uM, 30 min; active = over 0.2 and 3.5 SD of the protein, either way, in both replicates (recomputed)
[1] = compound: COC1=CC=C(C=C1)CN2C=CC3=C2C=C(C=C3)C(=O)NO
Method in brief: (§1)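 Quantification of soluble protein used TMTpro 16plex LC-MS/MS, with channel sums equalised. Samples were the supernatant after 21,000xg for 90 min of pooled aliquots from K562 cells (2×10^6 cells/mL) treated with 10 μM compound for 30 min, heated for 3 min over 48°C-58°C, and extracted in PBS with 0.5% NP-40 at 4°C. Values, from duplicates, describe thermal stability against control samples on a log2 fold-change scale.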

[2] = compound: CON(C)C(=O)N1N=C(c2cc(F)ccc2F)S[C@@]1(CCCN)c1ccccc1 [filanesib]
Method in brief: as §1

[3] = compound: CO[C@H]1C[C@@H]2CC[C@@H](C)[C@@](O)(O2)C(=O)C(=O)N2CCCC[C@H]2C(=O)O[C@H]([C@H](C)C[C@@H]2CC[C@H](n3cnnn3)[C@H](OC)C2)CC(=O)[C@H](C)/C=C(\C)[C@@H](O)[C@@H](OC)C(=O)[C@H](C)C[C@H](C)/C=C/C=C/C=C/1C [zotarolimus]
Method in brief: as §1

[4] = compound: COc1cc(C(=O)O)ccc1NC(=O)[C@@H]1N[C@@H](CC(C)(C)C)[C@](C#N)(c2ccc(Cl)cc2F)[C@H]1c1cccc(Cl)c1F [idasanutlin]
Method in brief: as §1

[5] = compound: COc1cc(Nc2ncc3c(n2)-c2ccc(Cl)cc2C(c2c(F)cccc2OC)=NC3)ccc1C(=O)O [alisertib]
Method in brief: as §1

[6] = compound: COc1cc2nc(-c3cc(F)ccc3O)nc(N[C@@H]3CNC[C@H]3C(C)(C)O)c2cc1OC
Method in brief: as §1

[7] = compound: COc1cc2ncnc(Nc3ccc(F)c(Cl)c3)c2cc1OCCCN1CCOCC1 [gefitinib]
Method in brief: as §1

[8] = compound: COc1cccc2cc(-c3nc([C@H]4CC[C@H](C(=O)O)CC4)n4ncnc(N)c34)[nH]c12
Method in brief: as §1

[9] = compound: CS(=O)(=O)CCNCc1ccc(-c2ccc3ncnc(Nc4ccc(OCc5cccc(F)c5)c(Cl)c4)c3c2)o1 [lapatinib]
Method in brief: as §1

[10] = compound: CS(=O)(=O)N1CCN(Cc2cc3nc(-c4cccc5[nH]ncc45)nc(N4CCOCC4)c3s2)CC1 [pictilisib]
Method in brief: as §1

[11] = compound: CS(=O)(=O)c1ccc(-c2cnc(N)c(C(=O)Nc3ccccc3)n2)cc1
Method in brief: as §1

[12] = compound: C[C@@H](Oc1cc(-c2cnn(C3CCNCC3)c2)cnc1N)c1c(Cl)ccc(F)c1Cl [crizotinib]
Method in brief: as §1

[13] = compound: C[C@@H]1COCCN1C2=NC(=NC(=C2)C3(CC3)S(=O)(=O)C)C4=C5C=CNC5=CC=C4
Method in brief: as §1

[14] = compound: C[C@H](C1=CC=C(C=C1)C(=O)NC2=C3C=CNC3=NC=C2)N
Method in brief: as §1

[15] = compound: C[C@H](Nc1ncnc2nc[nH]c12)c1cc2cccc(Cl)c2c(=O)n1-c1ccccc1 [duvelisib]
Method in brief: as §1

[16] = compound: Cc1cc(Nc2cc(CN3CCOCC3)c3nc(C)c(Cc4ccc(Cl)cc4F)n3n2)n[nH]1 [gandotinib]
Method in brief: as §1

[17] = compound: Cc1cc(Nc2cc(N3CCN(C)CC3)nc(Sc3ccc(NC(=O)C4CC4)cc3)n2)n[nH]1 [tozasertib]
Method in brief: as §1

[18] = compound: Cc1cc(SCc2sc(-c3ccc(C(F)(F)F)cc3)nc2C)ccc1OCC(=O)O
Method in brief: as §1

[19] = compound: Cc1ccc(-n2nc(C(C)(C)C)cc2NC(=O)Nc2ccc(OCCN3CCOCC3)c3ccccc23)cc1 [doramapimod]
Method in brief: as §1

[20] = compound: Cc1ccc(C(=O)N(CCCN)[C@@H](c2nc3cc(Cl)ccc3c(=O)n2Cc2ccccc2)C(C)C)cc1 [ispinesib]
Method in brief: as §1

Measured: log2 fold change

PPIP5K1 (UniProt Q6PFW1)
inactive: [1] -0.019 | [2] -0.015 | [3] 0.002 | [4] -0.012 | [5] -0.032 | [6] -0.032 | [7] -0.003 | [8] 0.058 | [9] 0.047 | [10] 0.097 | [11] -0.004 | [12] 0.032 | [13] 0.065 | [14] -0.042 | [15] 0.003 | [16] -0.026 | [17] 0.009 | [18] 0.018 | [19] 0.016 | [20] 0.032

PPA1 (UniProt Q15181)
inactive: [1] 0 | [2] -0.092 | [3] 0.019 | [4] -0.026 | [5] -0.042 | [6] 0.041 | [7] -0.004 | [8] 0.008 | [9] 0.003 | [10] 0.072 | [11] 0.056 | [12] -0.053 | [13] 0.045 | [14] -0.054 | [15] 0.053 | [16] 0.03 | [17] -0.012 | [18] -0.002 | [19] 0.046 | [20] 0

POLG (UniProt P54098)
inactive: [1] -0.06 | [2] -0.033 | [3] -0.038 | [4] 0.053 | [5] -0.001 | [6] 0.187 | [7] 0.131 | [8] -0.073 | [9] -0.179 | [10] 0.145 | [11] -0.006 | [12] 0.05 | [13] -0.053 | [14] 0.047 | [15] 0.167 | [16] 0.011 | [17] 0.155 | [18] -0.036 | [19] -0.016 | [20] -0.167

PLIN3 (UniProt O60664)
inactive: [1] 0.073 | [2] -0.095 | [3] 0.043 | [4] -0.033 | [5] -0.042 | [6] -0.065 | [7] -0.024 | [8] 0.022 | [9] -0.01 | [10] 0.008 | [11] -0.019 | [12] -0.016 | [13] 0.068 | [14] -0.057 | [15] 0.016 | [16] -0.032 | [17] 0.002 | [18] -0.009 | [19] -0.035 | [20] -0.013

PPA2 (UniProt Q9H2U2)
inactive: [1] 0.028 | [2] -0.071 | [3] -0.003 | [4] -0.047 | [5] 0.011 | [6] 0.068 | [7] -0.004 | [8] 0.04 | [9] -0.041 | [10] 0.102 | [11] 0.063 | [12] -0.014 | [13] 0.075 | [14] -0.062 | [15] 0.058 | [16] -0.006 | [17] -0.008 | [18] -0.014 | [19] -0.064 | [20] 0.051

PODXL2 (UniProt Q9NZ53)
inactive: [1] 0.052 | [2] -0.121 | [3] 0.13 | [4] -0.091 | [5] -0.084 | [6] 0.052 | [7] -0.145 | [8] 0.059 | [9] 0.008 | [10] 0.057 | [11] -0.16 | [12] -0.024 | [13] -0.008 | [14] -0.003 | [15] 0.079 | [16] -0.07 | [17] 0.099 | [18] 0.014 | [19] 0.014 | [20] 0.007

PON2 (UniProt Q15165)
inactive: [1] -0.012 | [2] -0.046 | [3] 0.033 | [4] 0.019 | [5] 0.018 | [6] 0.011 | [7] 0.034 | [8] 0.041 | [9] -0.027 | [10] -0.152 | [11] 0.004 | [12] 0.033 | [13] -0.053 | [14] 0.031 | [15] 0.051 | [16] 0.02 | [17] 0.044 | [18] 0 | [19] 0.077 | [20] -0.073

POU2F1 isoform 6 (UniProt P14859)
inactive: [1] -0.038 | [2] -0.139 | [3] 0 | [4] -0.051 | [5] 0.053 | [6] -0.023 | [7] 0.012 | [8] 0.124 | [9] 0.19 | [10] -0.025 | [11] -0.053 | [12] -0.037 | [13] 0.14 | [14] -0.115 | [15] -0.063 | [16] -0.11 | [17] 0.084 | [18] 0.044 | [19] 0.006 | [20] -0.018

PLRG1 (UniProt O43660)
inactive: [1] -0.024 | [2] 0.042 | [3] -0.031 | [4] 0.037 | [5] -0.032 | [6] -0.026 | [7] -0.004 | [8] 0.031 | [9] -0.016 | [10] -0.114 | [11] -0.06 | [12] 0.021 | [13] -0.073 | [14] 0.038 | [15] -0.062 | [16] 0.016 | [17] -0.04 | [18] -0.082 | [19] -0.01 | [20] 0.002

Reprinted at random: 2 records from the list, in no set order.
PPIP5K1 (UniProt Q6PFW1)
inactive: [1] -0.019 | [2] -0.015 | [3] 0.002 | [4] -0.012 | [5] -0.032 | [6] -0.032 | [7] -0.003 | [8] 0.058 | [9] 0.047 | [10] 0.097 | [11] -0.004 | [12] 0.032 | [13] 0.065 | [14] -0.042 | [15] 0.003 | [16] -0.026 | [17] 0.009 | [18] 0.018 | [19] 0.016 | [20] 0.032

POLG (UniProt P54098)
inactive: [1] -0.06 | [2] -0.033 | [3] -0.038 | [4] 0.053 | [5] -0.001 | [6] 0.187 | [7] 0.131 | [8] -0.073 | [9] -0.179 | [10] 0.145 | [11] -0.006 | [12] 0.05 | [13] -0.053 | [14] 0.047 | [15] 0.167 | [16] 0.011 | [17] 0.155 | [18] -0.036 | [19] -0.016 | [20] -0.167

Further entries follow:

PLPBP (UniProt O94903)
inactive: [1] 0.018 | [2] -0.014 | [3] 0.078 | [4] 0.055 | [5] 0.033 | [6] -0.021 | [7] 0.048 | [8] -0.139 | [9] -0.03 | [10] 0.245 | [11] 0.063 | [12] 0.111 | [13] -0.049 | [14] -0.013 | [15] 0.013 | [16] 0.054 | [17] -0.02 | [18] 0.115 | [19] -0.018 | [20] -0.022

PPM1A isoform 3 (UniProt P35813)
inactive: [1] 0 | [2] -0.061 | [3] -0.037 | [4] 0 | [5] 0.017 | [6] 0.058 | [7] 0.016 | [8] -0.002 | [9] -0.029 | [10] 0.112 | [11] 0.015 | [12] 0.022 | [13] 0.091 | [14] 0.009 | [15] 0.064 | [16] -0.099 | [17] -0.028 | [18] 0.014 | [19] -0.026 | [20] 0.003

PPCS (UniProt Q9HAB8)
inactive: [1] -0.038 | [2] -0.043 | [3] -0.027 | [4] -0.018 | [5] 0.024 | [6] 0.035 | [7] 0.005 | [8] 0.036 | [9] -0.038 | [10] 0.019 | [11] 0.049 | [12] 0.047 | [13] 0.056 | [14] -0.006 | [15] 0.047 | [16] -0.031 | [17] -0.052 | [18] 0.042 | [19] -0.004 | [20] 0.079

POFUT2 (UniProt Q9Y2G5)
inactive: [1] -0.053 | [2] 0.101 | [3] 0.024 | [4] 0.015 | [5] 0.018 | [6] 0.073 | [7] 0.02 | [8] -0.024 | [9] -0.041 | [10] -0.017 | [11] 0.097 | [12] -0.015 | [13] -0.024 | [14] 0.146 | [15] -0.021 | [16] 0.027 | [17] 0.016 | [18] 0.07 | [19] -0.02 | [20] -0.035

POLD2 (UniProt P49005)
inactive: [1] 0.005 | [2] -0.071 | [3] 0.03 | [4] -0.08 | [5] 0.098 | [6] 0.01 | [7] 0.012 | [8] 0.022 | [9] 0.024 | [10] 0.118 | [11] -0.016 | [12] -0.047 | [13] 0.019 | [14] -0.055 | [15] -0.017 | [16] -0.028 | [17] -0.008 | [18] 0.042 | [19] -0.04 | [20] -0.031

PNKD isoform 3 (UniProt Q8N490)
inactive: [1] 0.132 | [2] -0.068 | [3] 0.028 | [4] 0.013 | [5] -0.026 | [6] -0.2 | [7] 0.067 | [8] 0.031 | [9] -0.065 | [10] -0.007 | [11] 0.048 | [12] 0.025 | [13] -0.018 | [14] -0.05 | [15] 0.086 | [16] 0.033 | [17] -0.023 | [18] -0.045 | [19] -0.021 | [20] -0.021

PPIB (UniProt P23284)
inactive: [1] -0.08 | [2] 0.065 | [3] 0.012 | [4] 0.046 | [5] -0.115 | [6] -0.006 | [7] -0.003 | [8] -0.044 | [9] 0.011 | [10] -0.022 | [11] 0.026 | [12] 0.054 | [13] -0.067 | [14] 0.07 | [15] -0.046 | [16] 0.019 | [17] 0.017 | [18] 0.014 | [19] 0.032 | [20] -0.013
